{"source": "PubChem BioAssay AID1259405, NCATS – 2018", "assay": "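Mouse-designed siRNAs used to find CHO productivity engineering targets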 (primary screen)", "cells": "Chinese hamster CHO-K1 ovary cells with stable secreted eGFP expression", "reagent": "single siRNA against mouse genes, 0.8 pmol siRNA per well (2 µl of 400 nM stock)", "time to read-out": "3 days", "detection": "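Percent of the per-plate non-targeting control median for intracellular GFP per well by laser scanning cytometry and for cell viability by ATP luminescence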", "reading the numbers": "GFP, % of control: higher = more GFP per well, higher productivity; viability (ATP), % of control: higher = more viable cells (more ATP)", "rule for the call": "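a knock-down is called active if GFP reaches 120% or more of non-targeting control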", "note": "Shown is a random part of about 50,000 reagents. About 4,000 of all reagents (8%) count as active. 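Mouse siRNA library applied to hamster cells; one well for each siRNA.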 Reagents against one gene are numbered here."}
{"target": "Nrg1 (GeneID 211323)", "reagent no.": 1, "GFP, % of control": 103, "viability (ATP), % of control": 58.9, "activity call": "inactive"}
{"target": "Nrg1 (GeneID 211323)", "reagent no.": 2, "GFP, % of control": 72.3, "viability (ATP), % of control": 63.2, "activity call": "inactive"}
{"target": "Nrg1 (GeneID 211323)", "reagent no.": 3, "GFP, % of control": 79.2, "viability (ATP), % of control": 82.8, "activity call": "inactive"}
{"target": "Kif6 (GeneID 319991)", "reagent no.": 1, "GFP, % of control": 67.8, "viability (ATP), % of control": 65.9, "activity call": "inactive"}
{"target": "Kif6 (GeneID 319991)", "reagent no.": 2, "GFP, % of control": 68.6, "viability (ATP), % of control": 78.2, "activity call": "inactive"}
{"target": "Fbxl19 (GeneID 233902)", "reagent no.": 1, "GFP, % of control": 87.9, "viability (ATP), % of control": 69.8, "activity call": "inactive"}
{"target": "Fbxl19 (GeneID 233902)", "reagent no.": 2, "GFP, % of control": 78.5, "viability (ATP), % of control": 42.7, "activity call": "inactive"}
{"target": "Fbxl19 (GeneID 233902)", "reagent no.": 3, "GFP, % of control": 91, "viability (ATP), % of control": 67, "activity call": "inactive"}
{"target": "Abhd8 (GeneID 64296)", "reagent no.": 1, "GFP, % of control": 90.9, "viability (ATP), % of control": 75.7, "activity call": "inactive"}
{"target": "Abhd8 (GeneID 64296)", "reagent no.": 2, "GFP, % of control": 134, "viability (ATP), % of control": 132, "activity call": "active"}
{"target": "Abhd8 (GeneID 64296)", "reagent no.": 3, "GFP, % of control": 86.6, "viability (ATP), % of control": 95.7, "activity call": "inactive"}
{"target": "Cpn2 (GeneID 71756)", "reagent no.": 1, "GFP, % of control": 112, "viability (ATP), % of control": 110, "activity call": "inactive"}
{"target": "Cpn2 (GeneID 71756)", "reagent no.": 2, "GFP, % of control": 59.4, "viability (ATP), % of control": 88.7, "activity call": "inactive"}
{"target": "Cpn2 (GeneID 71756)", "reagent no.": 3, "GFP, % of control": 53.2, "viability (ATP), % of control": 78.4, "activity call": "inactive"}

Individual results from above.
Under “GFP, % of control”, Cpn2 (GeneID 71756) #2 is entered as 59.4
Under “viability (ATP), % of control”, Fbxl19 (GeneID 233902) #2 is entered as 42.7
For “GFP, % of control”, Nrg1 (GeneID 211323) #3 reads 79.2
Under “viability (ATP), % of control”, Abhd8 (GeneID 64296) #2 is entered as 132

Further results:
{"target": "Msto1 (GeneID 229524)", "reagent no.": 1, "GFP, % of control": 83.9, "viability (ATP), % of control": 52.5, "activity call": "inactive"}
{"target": "Msto1 (GeneID 229524)", "reagent no.": 2, "GFP, % of control": 66.4, "viability (ATP), % of control": 75.6, "activity call": "inactive"}
{"target": "Msto1 (GeneID 229524)", "reagent no.": 3, "GFP, % of control": 88.9, "viability (ATP), % of control": 123, "activity call": "inactive"}
{"target": "Nrgn (GeneID 64011)", "reagent no.": 1, "GFP, % of control": 99.5, "viability (ATP), % of control": 93.5, "activity call": "inactive"}
{"target": "Nrgn (GeneID 64011)", "reagent no.": 2, "GFP, % of control": 87, "viability (ATP), % of control": 115, "activity call": "inactive"}
{"target": "Ssxb13 (GeneID 382206)", "reagent no.": 1, "GFP, % of control": 1.03, "viability (ATP), % of control": 179, "activity call": "inactive"}
{"target": "Ssxb13 (GeneID 382206)", "reagent no.": 2, "GFP, % of control": 65.7, "viability (ATP), % of control": 82.3, "activity call": "inactive"}
{"target": "Ssxb13 (GeneID 382206)", "reagent no.": 3, "GFP, % of control": 103, "viability (ATP), % of control": 87.5, "activity call": "inactive"}
{"target": "Smad3 (GeneID 17127)", "reagent no.": 1, "GFP, % of control": 65.4, "viability (ATP), % of control": 51.3, "activity call": "inactive"}
{"target": "Smad3 (GeneID 17127)", "reagent no.": 2, "GFP, % of control": 77.7, "viability (ATP), % of control": 79, "activity call": "inactive"}
{"target": "Smad3 (GeneID 17127)", "reagent no.": 3, "GFP, % of control": 100, "viability (ATP), % of control": 86, "activity call": "inactive"}
{"target": "Mreg (GeneID 381269)", "reagent no.": 1, "GFP, % of control": 66.1, "viability (ATP), % of control": 63.6, "activity call": "inactive"}
{"target": "Mreg (GeneID 381269)", "reagent no.": 2, "GFP, % of control": 94.5, "viability (ATP), % of control": 82.4, "activity call": "inactive"}
{"target": "Mreg (GeneID 381269)", "reagent no.": 3, "GFP, % of control": 69.4, "viability (ATP), % of control": 90.9, "activity call": "inactive"}
{"target": "Psme3 (GeneID 19192)", "reagent no.": 1, "GFP, % of control": 89.7, "viability (ATP), % of control": 94.8, "activity call": "inactive"}
{"target": "Psme3 (GeneID 19192)", "reagent no.": 2, "GFP, % of control": 56.2, "viability (ATP), % of control": 46.6, "activity call": "inactive"}
{"target": "Psme3 (GeneID 19192)", "reagent no.": 3, "GFP, % of control": 73.7, "viability (ATP), % of control": 102, "activity call": "inactive"}
{"target": "Smim12 (GeneID 80284)", "reagent no.": 1, "GFP, % of control": 47, "viability (ATP), % of control": 54.7, "activity call": "inactive"}
{"target": "Smim12 (GeneID 80284)", "reagent no.": 2, "GFP, % of control": 95.4, "viability (ATP), % of control": 87.7, "activity call": "inactive"}
{"target": "Smim12 (GeneID 80284)", "reagent no.": 3, "GFP, % of control": 114, "viability (ATP), % of control": 115, "activity call": "inactive"}
{"target": "Irak3 (GeneID 73914)", "reagent no.": 1, "GFP, % of control": 88.6, "viability (ATP), % of control": 57.6, "activity call": "inactive"}
{"target": "Mdk (GeneID 17242)", "reagent no.": 1, "GFP, % of control": 27.9, "viability (ATP), % of control": 40.9, "activity call": "inactive"}
{"target": "Mdk (GeneID 17242)", "reagent no.": 2, "GFP, % of control": 87.2, "viability (ATP), % of control": 67.7, "activity call": "inactive"}
{"target": "Mdk (GeneID 17242)", "reagent no.": 3, "GFP, % of control": 28.3, "viability (ATP), % of control": 74.2, "activity call": "inactive"}
{"target": "Rps6ka4 (GeneID 56613)", "reagent no.": 1, "GFP, % of control": 128, "viability (ATP), % of control": 103, "activity call": "active"}
{"target": "Rps6ka4 (GeneID 56613)", "reagent no.": 2, "GFP, % of control": 121, "viability (ATP), % of control": 84.1, "activity call": "active"}
{"target": "Rps6ka4 (GeneID 56613)", "reagent no.": 3, "GFP, % of control": 90.1, "viability (ATP), % of control": 81.3, "activity call": "inactive"}
